In paper PMC7064778 one finds binding data, which are given here for two substances.

The chains behind the UniProt entries cited, without tags or fusion partners. Where a name states a change or a piece, a line headed by the entry shows the natural chain unless it says otherwise. Residues count along the entry.
UniProt Q9I4Y4: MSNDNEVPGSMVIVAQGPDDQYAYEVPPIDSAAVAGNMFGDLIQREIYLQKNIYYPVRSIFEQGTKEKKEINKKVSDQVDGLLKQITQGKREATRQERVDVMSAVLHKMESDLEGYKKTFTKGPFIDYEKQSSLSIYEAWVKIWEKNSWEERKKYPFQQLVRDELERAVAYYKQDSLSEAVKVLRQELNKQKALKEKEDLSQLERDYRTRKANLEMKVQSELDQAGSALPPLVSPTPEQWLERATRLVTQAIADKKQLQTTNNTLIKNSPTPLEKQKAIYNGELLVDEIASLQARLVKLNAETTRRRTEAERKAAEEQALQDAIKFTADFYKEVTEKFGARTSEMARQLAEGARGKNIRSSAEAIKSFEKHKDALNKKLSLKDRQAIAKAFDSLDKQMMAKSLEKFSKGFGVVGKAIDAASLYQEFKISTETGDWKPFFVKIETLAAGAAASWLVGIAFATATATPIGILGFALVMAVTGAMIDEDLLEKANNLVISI
PyoS5_(194–315): residues 194-315 of Q9I4Y4
UniProt P42512, residues 39-720: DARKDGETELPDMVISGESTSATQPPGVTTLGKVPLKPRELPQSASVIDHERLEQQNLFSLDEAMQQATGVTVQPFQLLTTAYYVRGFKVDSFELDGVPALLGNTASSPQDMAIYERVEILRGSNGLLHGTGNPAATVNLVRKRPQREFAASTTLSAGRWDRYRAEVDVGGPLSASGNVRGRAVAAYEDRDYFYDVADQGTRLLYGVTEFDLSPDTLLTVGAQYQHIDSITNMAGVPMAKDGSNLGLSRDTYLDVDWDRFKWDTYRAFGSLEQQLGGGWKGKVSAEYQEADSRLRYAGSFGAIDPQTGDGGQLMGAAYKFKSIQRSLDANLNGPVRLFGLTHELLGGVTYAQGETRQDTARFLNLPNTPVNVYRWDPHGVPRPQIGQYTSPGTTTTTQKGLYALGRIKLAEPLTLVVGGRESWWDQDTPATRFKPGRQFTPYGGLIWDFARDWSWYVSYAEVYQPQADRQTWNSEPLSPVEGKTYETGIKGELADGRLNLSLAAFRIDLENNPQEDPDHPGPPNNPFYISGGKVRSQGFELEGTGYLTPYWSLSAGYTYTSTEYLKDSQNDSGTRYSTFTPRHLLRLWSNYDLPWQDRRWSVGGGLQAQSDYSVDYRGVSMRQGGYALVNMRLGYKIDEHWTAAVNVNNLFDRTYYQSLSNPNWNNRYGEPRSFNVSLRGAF

The target in test [1] is PyoS5_(194–315) (P. aeruginosa) (UniProt Q9I4Y4). The test is described as follows: SPR; both purified. Background: In SPR one partner is held on a chip, and binding of the other changes the refractive index at the surface.
Test [2] addresses Pyocin S5 (P. aeruginosa) (UniProt Q9I4Y4). The test is described as follows: SEC-MALS; both purified. Background: In gel filtration, larger molecules generally elute earlier.

No constants are given. Whether binding was seen depends on the method and setting.

As for “ferric pyochelin transporter FptA (from UniProt P42512 39-720) (receptor)”, the binding result in test [1] was “no binding (tested: FptA 0.03 to 32 μM)”.
For the substance Pyocin S5 (from UniProt Q9I4Y4 1-498), in test [2], the binding entry is reported as “no binding (tested: 0.6 to 9.5 mg/ml)”.
